# Cell number after 72 h of treatment

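The test systems are human melanoma cell lines, treated with two drugs together for 72 h and then stained and imaged. The read-out is cell count (nuclei) in % of the DMSO control; lower values mean stronger growth inhibition or killing. Concentrations were fixed for each drug; these are the higher of two levels. These are primary screening values without error estimates.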
Only some of the drugs and lines screened are listed, without regard to their results.

Drugs:
OSI-906 (2 µM): C[C@]1(O)C[C@@H](c2nc(-c3ccc4ccc(-c5ccccc5)nc4c3)c3c(N)nccn32)C1
Src-I1 (10 µM): COc1cc2ncnc(Nc3ccc(Oc4ccccc4)cc3)c2cc1OC
YM155 (0.002 µM): COCC[n+]1c2c(n(Cc3cnccn3)c1C)C(=O)c1ccccc1C2=O
enzastaurin (4 µM): Cn1cc(C2=C(c3cn(C4CCN(Cc5ccccn5)CC4)c4ccccc34)C(=O)NC2=O)c2ccccc21
JZL184 (5 µM): O=C(Oc1ccc([N+](=O)[O-])cc1)N1CCC(C(O)(c2ccc3c(c2)OCO3)c2ccc3c(c2)OCO3)CC1
ABT-263 (2 µM): CC1(C)CCC(c2ccc(Cl)cc2)=C(CN2CCN(c3ccc(C(=O)NS(=O)(=O)c4ccc(N[C@H](CCN5CCOCC5)CSc5ccccc5)c(S(=O)(=O)C(F)(F)F)c4)cc3)CC2)C1
crizotinib (1 µM): C[C@@H](Oc1cc(-c2cnn(C3CCNCC3)c2)cnc1N)c1c(Cl)ccc(F)c1Cl
PLX4720 (0.4 µM): CCCS(=O)(=O)Nc1ccc(F)c(C(=O)c2c[nH]c3ncc(Cl)cc23)c1F
GSK0660 (5 µM): COC(=O)c1sccc1S(=O)(=O)Nc1ccc(Nc2ccccc2)cc1OC
STA-4783 (0.03 µM): CN(NC(=O)CC(=O)NN(C)C(=S)c1ccccc1)C(=S)c1ccccc1

Combination	COLO 792	C32	COLO 829	WM451Lu	COLO 800	WM3619
JZL184 + STA-4783	16.4	34.2	56.0	99.6	30.8	2.7
PLX4720 + ABT-263	17.9	60.2	59.7	52.8	25.1	68.3
Src-I1 + OSI-906	73.3	87.0	98.4	63.9	75.1	66.1
ABT-263 + crizotinib	12.8	49.9	92.2	76.6	11.5	72.6
Src-I1 + YM155	41.0	107	100	39.8	34.8	66.4
ABT-263 + STA-4783	2.1	23.6	43.1	67.9	18.7	3.3
STA-4783 + crizotinib	38.2	30.2	51.3	53.5	53.8	25.5
JZL184 + Src-I1	66.3	103	116	92.7	135	87.4
OSI-906 + ABT-263	12.7	88.2	78.1	69.5	18.6	75.6
YM155 + JZL184	48.8	93.2	87.3	43.6	47.6	52.7
crizotinib + GSK0660	87.0	76.7	78.2	71.3	52.6	75.7
PLX4720 + JZL184	98.1	66.9	55.2	61.4	64.8	71.5
enzastaurin + YM155	39.5	94.9	76.9	19.3	39.1	72.5
JZL184 + crizotinib	91.0	109	90.7	97.3	71.7	112
PLX4720 + OSI-906	80.7	81.3	58.9	65.0	36.4	76.0
PLX4720 + enzastaurin	99.9	90.7	87.1	86.5	104	96.0
crizotinib + PLX4720	110	77.0	72.9	57.0	70.7	105
YM155 + ABT-263	2.7	98.9	73.7	10.3	5.9	47.0
OSI-906 + YM155	45.7	121	55.5	28.0	25.1	83.1
ABT-263 + enzastaurin	8.3	52.4	54.2	42.8	20.7	48.0
Src-I1 + PLX4720	80.1	89.4	81.6	71.7	79.4	79.1
JZL184 + GSK0660	128	115	89.7	106	73.5	87.2
OSI-906 + STA-4783	31.4	20.6	49.1	94.2	13.6	10.9
PLX4720 + STA-4783	30.3	27.7	38.4	49.3	24.4	3.6
enzastaurin + OSI-906	93.7	99.6	77.9	114	58.7	107
GSK0660 + ABT-263	28.5	91.6	112	87.0	18.0	96.0
GSK0660 + OSI-906	107	94.9	112	85.3	49.0	84.9
YM155 + crizotinib	55.7	91.5	66.0	26.8	40.2	84.9
YM155 + STA-4783	14.4	34.4	35.4	40.8	21.4	14.1
Src-I1 + enzastaurin	78.0	92.3	116	87.6	163	104
crizotinib + Src-I1	76.8	99.7	91.5	74.1	93.6	84.3
STA-4783 + GSK0660	12.6	37.6	56.4	75.0	22.5	16.3
GSK0660 + PLX4720	114	86.4	68.7	50.6	87.2	89.4
YM155 + GSK0660	78.6	97.5	106	46.5	36.3	95.0
OSI-906 + JZL184	98.0	102	98.0	109	45.6	104
crizotinib + enzastaurin	78.2	72.9	67.2	64.4	32.1	89.1
OSI-906 + crizotinib	71.1	86.5	78.2	104	56.4	93.0
ABT-263 + Src-I1	16.6	107	70.6	72.5	5.1	48.9
enzastaurin + STA-4783	33.3	23.4	37.1	96.9	9.8	6.8

The first 5 entries again:

{"combination": "JZL184 + STA-4783", "COLO 792": 16.4, "C32": 34.2, "COLO 829": 56.0, "WM451Lu": 99.6, "COLO 800": 30.8, "WM3619": 2.7}
{"combination": "PLX4720 + ABT-263", "COLO 792": 17.9, "C32": 60.2, "COLO 829": 59.7, "WM451Lu": 52.8, "COLO 800": 25.1, "WM3619": 68.3}
{"combination": "Src-I1 + OSI-906", "COLO 792": 73.3, "C32": 87.0, "COLO 829": 98.4, "WM451Lu": 63.9, "COLO 800": 75.1, "WM3619": 66.1}
{"combination": "ABT-263 + crizotinib", "COLO 792": 12.8, "C32": 49.9, "COLO 829": 92.2, "WM451Lu": 76.6, "COLO 800": 11.5, "WM3619": 72.6}
{"combination": "Src-I1 + YM155", "COLO 792": 41.0, "C32": 107, "COLO 829": 100, "WM451Lu": 39.8, "COLO 800": 34.8, "WM3619": 66.4}

From a melanoma drug combination screen (doi:10.1371/journal.pone.0140310); values rounded.